Structures can show the parent of a compound that is named as a salt. This is one part of the list. This data set is noisy: repeats of one test often differ as much as different tests do.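 In a drug-repurposing library screen, luminescence reads luciferase driven by eight TEAD-binding elements, stably integrated into human kidney-derived cells. Compounds scoring over five robust Z scores above the plate mean are called hits.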
Test system: HEK293A TEAD-LUC reporter
Assay: TEAD-luciferase reporter activity (YAP activation), robust Z score vs plate; higher = stronger YAP/TEAD activation
Conditions: 24 h

Row | SMILES | TEAD-luciferase reporter activity (compound concentration: 200 nM) | TEAD-luciferase reporter activity (compound concentration: 2 uM) | TEAD-luciferase reporter activity (compound concentration: 10 uM)
1 | C[C@H](Cc1ccc2c(c1)OC(C(=O)O)(C(=O)O)O2)NC[C@H](O)c1cccc(Cl)c1 | inactive: 2.97 | inactive: -0.0268 | inactive: 0.345
2 | OC[C@H]1O[C@@H](n2cnc3cc(Cl)c(Cl)cc32)[C@@H](O)C1O (stereo not given in full) | inactive: -1.82 | inactive: -0.248 | active: 6.54
3 | C[C@]1(O)CC[C@H]2[C@@H]3CCC4=CC(=O)CCC4=C3C=C[C@@]21C | inactive: -0.997 | inactive: 1.42 | inactive: 1.05
4 | NC(=O)C(CCN1CCN2CCCC2C1)(c1ccccc1)c1ccccc1 (stereo not given) | inactive: -1.06 | inactive: -0.288 | inactive: 0.194
5 | NP(N)(=O)NC(=O)c1ccc(F)cc1 [flurofamide] | inactive: 2.62 | inactive: -1.72 | inactive: 0.747
6 | Cc1ncc2n1-c1ccc(Cl)cc1C(c1ccccc1F)=NC2 [Midazolam Hydrochloride] | inactive: -2.4 | – | inactive: 2.58
7 | c1cn(-c2cc(NC3=NCC4(CN5CCC4CC5)O3)ncn2)cn1 (stereo not given) | inactive: 0.844 | inactive: -0.0678 | inactive: 3.91
8 | CN1C(=O)CN=C(C2=CCCCC2)c2cc(Cl)ccc21 | inactive: -0.357 | inactive: 0.185 | inactive: -0.343
9 | CCN(CC)CCN1C(=O)[C@](O)(c2ccccc2Cl)c2c1cc(C(N)=O)cc2C(F)(F)F | inactive: -1.19 | inactive: 1.16 | inactive: -0.266
10 | CCC1(CC)C(=O)NC(=S)NC1=O | inactive: -0.464 | inactive: -1.47 | inactive: -0.052
11 | O=C(O)C(=O)CBr [3-Bromopyruvate] | inactive: 0.124 | inactive: -0.278 | inactive: -1.37
12 | CCCC[C@H]1CC[C@H](C(=O)O[C@H]2CCC3C4CCC5=CC(=O)CCC5(C)C4CCC32C)CC1 (stereo not given in full) [Testosterone buciclate] | inactive: -0.412 | inactive: -0.691 | inactive: -0.81
13 | CC(=O)OC1CC(OC2C(O)CC(OC3C(O)CC(OC4CCC5(C)C(CC[C@@H]6[C@@H]5CCC5(C)C(C7=CC(=O)OC7)CCC65O)C4)OC3C)OC2C)OC(C)C1OC1OC(CO)C(O)C(O)C1O (stereo not given in full) | active: 16 | inactive: -2.21 | active: 16.5
14 | O=[N+]([O-])[O][Ga]([O][N+](=O)[O-])[O][N+](=O)[O-] [Gallium(III) nitrate hydrate] | inactive: 2.55 | inactive: 2.39 | inactive: -0.73
15 | CN1C(=O)C(O)N=C(c2ccccc2F)c2cc(Cl)ccc21 (stereo not given) | inactive: -1.38 | inactive: 0.179 | inactive: -1.17
16 | CN1C(=O)CCS(=O)(=O)C1c1ccc(Cl)cc1 (stereo not given) [Chlormeza] | inactive: -1.39 | inactive: -0.968 | inactive: -1.18
17 | [N-]=[N+]=CC(=O)CC[C@H](N)C(=O)O | inactive: -0.0803 | inactive: -1.64 | inactive: -0.238
18 | CN(C)C(=O)Oc1ccc2c(c1)[nH]c(=O)c1c3ccc(OC(=O)N(C)C)cc3oc21 | inactive: 0.301 | inactive: -1.58 | inactive: 1.18
19 | CCN[C@@H](C)Cc1cccc(C(F)(F)F)c1 [(+)-Fenfluramine hydrochloride] | inactive: -1.45 | – | inactive: -0.0472
20 | O=C(OC1c2nccnc2C(=O)N1c1ccc(Cl)cn1)N1CCNCC1 (stereo not given) | inactive: 0.464 | inactive: -0.268 | inactive: -0.342
21 | O=C1C=C(N2CC2)C(=O)C(N2CC2)=C1N1CC1 | inactive: -1.23 | inactive: -1.28 | inactive: -0.253
22 | O=C(NC(=O)c1cc(F)c(F)cc1Cl)Nc1ccc(C(=O)O)cc1OC(F)(F)F | inactive: 2.93 | inactive: -1.07 | inactive: -0.889
23 | COC1CC(=C(c2cccs2)c2cccs2)C[N+](C)(C)C1 (stereo not given) | inactive: 0.315 | inactive: -0.687 | inactive: 1.66
24 | COP(=S)(OC)Oc1ccc(S(=O)(=O)N(C)C)cc1 [Famphur] | inactive: -1.24 | inactive: -0.325 | inactive: -0.646
25 | CN1CC=C(c2c[nH]c3ccccc23)CC1 | inactive: 0.349 | inactive: -1.14 | inactive: 0.889
26 | CCOC(=O)[C@H](Cc1ccc(F)cc1)NC(=O)[C@@H](N)Cc1ccc(N(CCCl)CCCl)cc1 | inactive: -0.44 | inactive: 0.825 | inactive: -2.33
27 | CC1COC(c2cccc(C(F)(F)F)c2)CN1 (stereo not given) | inactive: 1.48 | inactive: 0.571 | inactive: 1.53

Row | SMILES | TEAD-luciferase reporter activity (compound concentration: 200 nM) | TEAD-luciferase reporter activity (compound concentration: 2 uM) | TEAD-luciferase reporter activity (compound concentration: 10 uM)
28 | CCN(CC)CCNC(=O)C(O)(c1ccccc1)c1ccccc1 | inactive: 3.59 | inactive: -0.686 | inactive: -0.186
29 | COC(=O)[C@]12CN(C)C[C@](C(=O)OC)(C1=O)[C@@H](c1ccccn1)N(C)[C@H]2c1ccccn1 | inactive: -0.897 | inactive: -1.45 | inactive: -0.426
30 | C=CCC1(CC(C)O)C(=O)NC(=O)NC1=O (stereo not given) | inactive: -1.08 | inactive: -1.21 | inactive: 2.55
31 | C[N+]1(C)C2C=CC1CC(OC(=O)C(O)(c1cccs1)c1cccs1)C2 (stereo not given) | inactive: -1.71 | inactive: -1.1 | inactive: 1.55
32 | CN(C)CCc1ccc(O)cc1 | inactive: -0.509 | inactive: 3.67 | inactive: -0.221
33 | CC(N)C(=O)NC(CO)C(=O)NC(C(=O)NC(C(=O)NC(C(=O)NC(CC(N)=O)C(=O)NC(Cc1ccc(O)cc1)C(=O)NC(C(=O)O)C(C)O)C(C)O)C(C)O)C(C)O (stereo not given) [Peptide T] | inactive: 0.885 | inactive: -1.4 | inactive: 0.992
34 | ClCC[N+]12CC[N+](CCCl)(CC1)C2 [DABIS maleate] | inactive: -1.4 | inactive: 2.12 | inactive: 0.775
35 | COC(=O)CC[C@@H]1N=C(c2ccccn2)c2cc(Br)ccc2-n2c(C)cnc21 [remimazolam tosylate] | inactive: 1.53 | inactive: -0.466 | inactive: -0.55
36 | CO[C@H]1[C@@H](O)C[C@H](O[C@H]2[C@@H](O)C[C@H](O[C@H]3[C@@H](O)C[C@H](O[C@H]4CC[C@@]5(C)[C@H](CC[C@@H]6[C@@H]5C[C@@H](O)[C@]5(C)[C@@H](C7=CC(=O)OC7)CC[C@]65O)C4)O[C@@H]3C)O[C@@H]2C)O[C@@H]1C [Metildigoxin] | active: 8.48 | inactive: -2.66 | active: 11.5
37 | CCCC[C@@H](NC(=O)[C@@H](Cc1ccccc1)NC(=O)[C@H](N)Cc1ccccc1)C(=O)N[C@H](CCCNC(=N)N)C(=O)NCc1ccncc1 | inactive: -0.656 | inactive: -0.272 | inactive: 0.105
38 | Cc1cccc(C)c1NC(=O)CN1CCCC1=O [Nefiracetam] | inactive: -0.605 | inactive: -2.69 | active: 7.89
39 | FC(F)(F)c1ccc2c(c1)[C@@H]1CNC[C@H]2C1 | inactive: -0.518 | inactive: -0.638 | inactive: -1.95
40 | CNS(=O)(=O)Cc1ccc2[nH]cc(C[C@H]3CCCN3C)c2c1 | inactive: -1.12 | inactive: -0.00845 | inactive: 4.93
41 | NC(=O)OC[C@H](N)Cc1ccccc1 | inactive: 0.219 | inactive: -1.24 | inactive: -1.02
42 | CO[C@H]1[C@@H](O)[C@@H](C)O[C@H](O[C@H]2[C@H](Oc3cccc4c(O)c5c(=O)oc6ccc(C)c7c(=O)oc(c34)c5c67)O[C@H](C)[C@H](O)[C@@H]2O)[C@@H]1O | inactive: 3.8 | inactive: -1.17 | inactive: 3.4
43 | C=C(C(=O)OC1CC2CCC(C1)N2C)c1ccccc1 (stereo not given) | inactive: -1.24 | inactive: -0.0651 | inactive: -1.33
44 | O=C(O)C(Cl)(Cl)Cl | inactive: 3.87 | inactive: -0.861 | inactive: 1.03
45 | O=P1(N(CCCl)CCCl)NC(OO)CCO1 (stereo not given) [perfosfamide] | inactive: -1.02 | inactive: 0.0514 | inactive: -0.777
46 | O=c1c2ccccc2[se]n1-c1ccccc1 [ebselen] | inactive: -0.417 | inactive: -0.385 | inactive: 0.677
47 | O=C1CN=C(c2ccc[nH]2)c2cc(Cl)ccc2N1 | inactive: -1.57 | inactive: -3 | inactive: -0.0691
48 | CC[C@@H](C(=O)Oc1c(OC)cc(C)cc1OC)N(CCOC)CCOC | inactive: -1.18 | inactive: -0.875 | inactive: 1.13
49 | COc1ccc([C@@H](O)[C@@H](N)c2ccccc2)cc1 | inactive: -2.11 | inactive: -1.3 | inactive: 1.21
50 | COc1ccc(C[C@@H](C)NC[C@H](O)c2ccc(O)c3nc(O)ccc23)cc1 [Carmoterol] | inactive: 0.134 | inactive: -1.14 | inactive: -2.65
51 | CC(C)(O)C(=O)Nc1ccc([N+](=O)[O-])c(C(F)(F)F)c1 [2-Hydroxyflutamide] | inactive: 0.768 | inactive: -1.61 | inactive: 3.13
52 | Cc1cc(O)cc(C)c1C[C@H](NC(=O)[C@H](N)CCCNC(=N)N)C(=O)N[C@@H](CCCCN)C(=O)N[C@@H](Cc1ccccc1)C(N)=O [Elamipretide] | inactive: -1.15 | inactive: 1.09 | inactive: -1.44
53 | CC(C)(N)CC12CC3CC(CC(C3)C1)C2 [somantadine] | inactive: 0.463 | inactive: -1.12 | inactive: -1.77
54 | CNC1CCc2[nH]c3ccccc3c2C1 (stereo not given) | inactive: 1.5 | inactive: -0.182 | inactive: -0.893

Given tab-delimited: entries from further up.
Row	SMILES	TEAD-luciferase reporter activity (compound concentration: 200 nM)	TEAD-luciferase reporter activity (compound concentration: 2 uM)	TEAD-luciferase reporter activity (compound concentration: 10 uM)
28	CCN(CC)CCNC(=O)C(O)(c1ccccc1)c1ccccc1	inactive: 3.59	inactive: -0.686	inactive: -0.186
35	COC(=O)CC[C@@H]1N=C(c2ccccn2)c2cc(Br)ccc2-n2c(C)cnc21 [remimazolam tosylate]	inactive: 1.53	inactive: -0.466	inactive: -0.55
37	CCCC[C@@H](NC(=O)[C@@H](Cc1ccccc1)NC(=O)[C@H](N)Cc1ccccc1)C(=O)N[C@H](CCCNC(=N)N)C(=O)NCc1ccncc1	inactive: -0.656	inactive: -0.272	inactive: 0.105
40	CNS(=O)(=O)Cc1ccc2[nH]cc(C[C@H]3CCCN3C)c2c1	inactive: -1.12	inactive: -0.00845	inactive: 4.93
42	CO[C@H]1[C@@H](O)[C@@H](C)O[C@H](O[C@H]2[C@H](Oc3cccc4c(O)c5c(=O)oc6ccc(C)c7c(=O)oc(c34)c5c67)O[C@H](C)[C@H](O)[C@@H]2O)[C@@H]1O	inactive: 3.8	inactive: -1.17	inactive: 3.4
44	O=C(O)C(Cl)(Cl)Cl	inactive: 3.87	inactive: -0.861	inactive: 1.03
46	O=c1c2ccccc2[se]n1-c1ccccc1 [ebselen]	inactive: -0.417	inactive: -0.385	inactive: 0.677
50	COc1ccc(C[C@@H](C)NC[C@H](O)c2ccc(O)c3nc(O)ccc23)cc1 [Carmoterol]	inactive: 0.134	inactive: -1.14	inactive: -2.65
52	Cc1cc(O)cc(C)c1C[C@H](NC(=O)[C@H](N)CCCNC(=N)N)C(=O)N[C@@H](CCCCN)C(=O)N[C@@H](Cc1ccccc1)C(N)=O [Elamipretide]	inactive: -1.15	inactive: 1.09	inactive: -1.44
53	CC(C)(N)CC12CC3CC(CC(C3)C1)C2 [somantadine]	inactive: 0.463	inactive: -1.12	inactive: -1.77

— the supplement of paper PMC10735217
